Reference: the supplement of paper PMC12067093, “Discovery and optimisation of a covalent ligand for TRIM25 and its application to targeted protein ubiquitination” (Chemical Science, 2025)
The other results are listed elsewhere or left out.

Compound: Cc1cc(ccc1-c1ccccc1)C(=O)N1CCCN(CC1)C(=O)CCl [compound 10]
Assay: probe-labelled cysteine peptide fold change vs DMSO (competition) (log2 fold change); higher = less target engagement (more negative = stronger competition)
Settings: THP-1, incubation time: 4 h
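Also: competitive profiling in live THP-1 cells: cysteine peptides tagged with an iodoacetamide desthiobiotin (IA-DTB) probe, intensity after compound treatment relative to DMSO-treated cells.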

Target	probe-labelled cysteine peptide fold change (10 µM)	probe-labelled cysteine peptide fold change (50 µM)
PPP6R1_Q9UPN7_455_ILTSWEENDRVQCAGGPR (UniProt Q9UPN7)	-0.0545	-0.0783
PPP4R1_Q8TF05_645_HCAYSLPGVALTLGR (UniProt Q8TF05)	0.165	0.108
PPP1R12C_Q9BZL4_109_AVLDSTNADGISALHQACIDENLEVVR (UniProt Q9BZL4)	0.0819	-0.0717
PREP_P48147_264_LWYCDLQQESSGIAGILK (UniProt P48147)	0.0388	0.112
PPP1R8_Q12972_58_NPDLCDFTIDHQSCSR (UniProt Q12972)	0.202	0.123
PREP_P48147_343_DVLEWIACVR (UniProt P48147)	0.146	0.394
PPM1H_Q9ULR3_239_IPHECLVIGALESAFK (UniProt Q9ULR3)	-0.0964	-0.195
PPP2CA_P67775_20_ELDQWIEQLNECK (UniProt P67775)	-0.118	-0.0861
PPP2R2A_P63151_398_KVCASGK (UniProt P63151)	0.0616	-0.0498
PPP5C_P53041_77_TECYGYALGDATR (UniProt P53041)	0.174	0.189
PPIP5K2_O43314_488_KVQLTYLPHGCPK (UniProt O43314)	-0.245	-0.344
PPP1R18_Q6NYC8_611_ALIVDESCRR (UniProt Q6NYC8)	-0.341	-0.164
PPT1_P50897_152+160_CPGESSHICDFIR (UniProt P50897)	-0.485	-0.321
PPP1R7_Q15435_112_CIENLEELQSLR (UniProt Q15435)	-0.00604	0.158
PPP1R15B_Q5SWA1_686_IQETEDAIGYCLTFEHR (UniProt Q5SWA1)	-0.455	0.187
PPOX_P50336_167_LGPEVASLAMDSLCR (UniProt P50336)	0.349	0.124
PPM1E_Q8WY54_307_QEMFPHDPAEALCR (UniProt Q8WY54)	-0.144	-0.28
PREP_P48147_25_ICDPYAWLEDPDSEQTK (UniProt P48147)	0.89	0.929
PPIP5K2_O43314_729_IPDIYDCIK (UniProt O43314)	0.0709	0.134
PPP2R1B_P30154_516_MTTLFCINALSEACGQEITTK (UniProt P30154)	0.349	-0.219
PPT1_P50897_46_ALQHLDPPAPLPLVIWHGMGDSCCNPLSMGAIKK (UniProt P50897)	0.0508	-0.69
PPME1_Q9Y570_238_QCEGITSPEGSK (UniProt Q9Y570)	-0.174	-0.29
PREP_P48147_57_ITVPFLEQCPIR (UniProt P48147)	-0.283	-0.0531

Target	probe-labelled cysteine peptide fold change (10 µM)	probe-labelled cysteine peptide fold change (50 µM)
PPP2R1A_P30153_377_DECPEVR (UniProt P30153)	0.148	0.26
PPP1R21_Q6ZMI0_516_AASGFISPLSAECMLQYK (UniProt Q6ZMI0)	-0.165	0.0519
PPP1R8_Q12972_58+67_NPDLCDFTIDHQSCSR (UniProt Q12972)	0.0562	0.308
PRC1_O43663_80_ELNTLCSELHVEPFQEEGETTILQLEK (UniProt O43663)	0.288	0.298
PPIP5K2_O43314_306_QTVCGFDLLR (UniProt O43314)	-0.124	0.329
PRDX4_Q13162_51_EEECHFYAGGQVYPGEASR (UniProt Q13162)	-0.0981	0.21
PPP2R2A_P63151_398_VCASGK (UniProt P63151)	-0.159	-0.0658
PPP6R3_Q5H9R7_216_HSNASQSLCEIVR (UniProt Q5H9R7)	0.0266	-0.00422
PPIP5K2_O43314_49_QIVVGICSMAK (UniProt O43314)	-0.0903	-0.046
PRDX2_P32119_172_LVQAFQYTDEHGEVCPAGWKPGSDTIKPNVDDSK (UniProt P32119)	-0.0563	-0.154
PPP1CB_P62140_201_IMRPTDVPDTGLLCDLLWSDPDK (UniProt P62140)	-0.0215	0.368
PREPL_Q4J6C6_160_LDQPFIDCIR (UniProt Q4J6C6)	-0.024	-0.161
PREB_Q9HCU5_90_ATMNLALAGDILAAGQDAHCQLLR (UniProt Q9HCU5)	-0.193	-0.0621
PPP1R3G_B7ZBB8_76_EEAAPQEQEELLECR (UniProt B7ZBB8)	-0.204	-0.563
PREP_P48147_410_DTEIFYQFTSFLSPGIIYHCDLTK (UniProt P48147)	0.0842	0.431
PPP1R3D_O95685_60_APPPTPAPSGCDPR (UniProt O95685)	-0.238	-0.331
PPP6R1_Q9UPN7_216_LIEQIHPSKDENQHSNASQSLCDIIR (UniProt Q9UPN7)	-0.27	-0.696
PRDX2_P32119_70_LGCEVLGVSVDSQFTHLAWINTPRK (UniProt P32119)	0.198	-0.115
PPP4R2_Q9NY27_22_EVCPVLDQFLCHVAK (UniProt Q9NY27)	-0.179	-0.365
PPP1R21_Q6ZMI0_696_SVHFYAECR (UniProt Q6ZMI0)	-0.00803	0.238
PRDX1_Q06830_83_LNCQVIGASVDSHFCHLAWVNTPK (UniProt Q06830)	0.119	-0.219
PPP3CB_P16298_162_GNHECR (UniProt P16298)	0.0253	0.0397
PPP2R5C_Q13362_270_SLSVYHPQLAYCVVQFLEK (UniProt Q13362)	0.187	0.194

Target	probe-labelled cysteine peptide fold change (10 µM)	probe-labelled cysteine peptide fold change (50 µM)
PRDX1_Q06830_71+83_LNCQVIGASVDSHFCHLAWVNTPK (UniProt Q06830)	0.169	-0.0725
PRDX5_P30044_100_GVLFGVPGAFTPGCSK (UniProt P30044)	-0.408	-0.68
PPP4R2_Q9NY27_105_LCELLTDPR (UniProt Q9NY27)	0.0683	0.148
PPP6R1_Q9UPN7_326_LSCFHQLLLEPPKLEPLQMTWGMLAPPLGNTR (UniProt Q9UPN7)	-0.092	0.077
PRDX5_P30044_100_KGVLFGVPGAFTPGCSK (UniProt P30044)	-0.389	-0.855
PPP2R5A_Q15172_72_DATSNEQQELFCQK (UniProt Q15172)	0.0287	-0.096
PPP6R1_Q9UPN7_216_DENQHSNASQSLCDIIR (UniProt Q9UPN7)	-0.28	0.182
PREX1_Q8TCU6_558_LVDWLLAQGDCQTR (UniProt Q8TCU6)	0.0221	0.0375
PPP1CC_P36873_202_PTDVPDQGLLCDLLWSDPDK (UniProt P36873)	-0.228	0.286
PPP3R1_P63098_154_ISFEEFCAVVGGLDIHKK (UniProt P63098)	0.0939	-0.0352
PREPL_Q4J6C6_227_CHDVYR (UniProt Q4J6C6)	0.00281	-0.172
PPP3CA_Q08209_256_GCSYFYSYPAVCEFLQHNNLLSILR (UniProt Q08209)	-0.271	-0.0718
PPP2R1A_P30153_329_ENVIMSQILPCIK (UniProt P30153)	0.0526	0.148
PPP2R2A_P63151_13_AGAGGGNDIQWCFSQVK (UniProt P63151)	-0.147	-0.13
PPP1R12C_Q9BZL4_211_CWLNGGAMPEAR (UniProt Q9BZL4)	-0.106	-0.624
PPM1L_Q5SGD2_340_GCPDNITVMVVK (UniProt Q5SGD2)	-0.0702	0.0995
PREP_P48147_532_QNCFDDFQCAAEYLIK (UniProt P48147)	-0.0411	0.182
PPM1B_O75688_149_HIYFINCGDSR (UniProt O75688)	-0.0762	-0.0325
PPM1A_P35813_72_YCCEHLLDHITNNQDFK (UniProt P35813)	0.0202	-0.0868
PRDX1_Q06830_71+83_KLNCQVIGASVDSHFCHLAWVNTPKK (UniProt Q06830)	-0.0997	-0.853
PREPL_Q4J6C6_538_LNGLADLEACIK (UniProt Q4J6C6)	0.14	0.28
PPP6R2_O75170_366_LMAALLHTNTPSINQELCR (UniProt O75170)	0.207	0.414

Not a retest: entries from further up.
Target	probe-labelled cysteine peptide fold change (10 µM)	probe-labelled cysteine peptide fold change (50 µM)
PPP1R18_Q6NYC8_611_ALIVDESCRR (UniProt Q6NYC8)	-0.341	-0.164
PPT1_P50897_152+160_CPGESSHICDFIR (UniProt P50897)	-0.485	-0.321
PPP1R7_Q15435_112_CIENLEELQSLR (UniProt Q15435)	-0.00604	0.158
PPP1R15B_Q5SWA1_686_IQETEDAIGYCLTFEHR (UniProt Q5SWA1)	-0.455	0.187
PPOX_P50336_167_LGPEVASLAMDSLCR (UniProt P50336)	0.349	0.124
PPM1E_Q8WY54_307_QEMFPHDPAEALCR (UniProt Q8WY54)	-0.144	-0.28
PREP_P48147_25_ICDPYAWLEDPDSEQTK (UniProt P48147)	0.89	0.929
PPIP5K2_O43314_729_IPDIYDCIK (UniProt O43314)	0.0709	0.134
PPP2R1B_P30154_516_MTTLFCINALSEACGQEITTK (UniProt P30154)	0.349	-0.219
PPT1_P50897_46_ALQHLDPPAPLPLVIWHGMGDSCCNPLSMGAIKK (UniProt P50897)	0.0508	-0.69
PPME1_Q9Y570_238_QCEGITSPEGSK (UniProt Q9Y570)	-0.174	-0.29
PREP_P48147_57_ITVPFLEQCPIR (UniProt P48147)	-0.283	-0.0531
PPP2R1A_P30153_377_DECPEVR (UniProt P30153)	0.148	0.26
PPP1R21_Q6ZMI0_516_AASGFISPLSAECMLQYK (UniProt Q6ZMI0)	-0.165	0.0519
PPP1R8_Q12972_58+67_NPDLCDFTIDHQSCSR (UniProt Q12972)	0.0562	0.308
PRC1_O43663_80_ELNTLCSELHVEPFQEEGETTILQLEK (UniProt O43663)	0.288	0.298
